The exact form of at least one protein or probe is not confirmed. Tags and fusion partners may be left off the protein sequences shown.
Target: T1, hPolεCD (E. coli), catalytic domain of DNA polymerase ε p261, CysX [4Fe-4S] cluster (63% iron) (human) (UniProt Q07864)
T1 sequence (looked up): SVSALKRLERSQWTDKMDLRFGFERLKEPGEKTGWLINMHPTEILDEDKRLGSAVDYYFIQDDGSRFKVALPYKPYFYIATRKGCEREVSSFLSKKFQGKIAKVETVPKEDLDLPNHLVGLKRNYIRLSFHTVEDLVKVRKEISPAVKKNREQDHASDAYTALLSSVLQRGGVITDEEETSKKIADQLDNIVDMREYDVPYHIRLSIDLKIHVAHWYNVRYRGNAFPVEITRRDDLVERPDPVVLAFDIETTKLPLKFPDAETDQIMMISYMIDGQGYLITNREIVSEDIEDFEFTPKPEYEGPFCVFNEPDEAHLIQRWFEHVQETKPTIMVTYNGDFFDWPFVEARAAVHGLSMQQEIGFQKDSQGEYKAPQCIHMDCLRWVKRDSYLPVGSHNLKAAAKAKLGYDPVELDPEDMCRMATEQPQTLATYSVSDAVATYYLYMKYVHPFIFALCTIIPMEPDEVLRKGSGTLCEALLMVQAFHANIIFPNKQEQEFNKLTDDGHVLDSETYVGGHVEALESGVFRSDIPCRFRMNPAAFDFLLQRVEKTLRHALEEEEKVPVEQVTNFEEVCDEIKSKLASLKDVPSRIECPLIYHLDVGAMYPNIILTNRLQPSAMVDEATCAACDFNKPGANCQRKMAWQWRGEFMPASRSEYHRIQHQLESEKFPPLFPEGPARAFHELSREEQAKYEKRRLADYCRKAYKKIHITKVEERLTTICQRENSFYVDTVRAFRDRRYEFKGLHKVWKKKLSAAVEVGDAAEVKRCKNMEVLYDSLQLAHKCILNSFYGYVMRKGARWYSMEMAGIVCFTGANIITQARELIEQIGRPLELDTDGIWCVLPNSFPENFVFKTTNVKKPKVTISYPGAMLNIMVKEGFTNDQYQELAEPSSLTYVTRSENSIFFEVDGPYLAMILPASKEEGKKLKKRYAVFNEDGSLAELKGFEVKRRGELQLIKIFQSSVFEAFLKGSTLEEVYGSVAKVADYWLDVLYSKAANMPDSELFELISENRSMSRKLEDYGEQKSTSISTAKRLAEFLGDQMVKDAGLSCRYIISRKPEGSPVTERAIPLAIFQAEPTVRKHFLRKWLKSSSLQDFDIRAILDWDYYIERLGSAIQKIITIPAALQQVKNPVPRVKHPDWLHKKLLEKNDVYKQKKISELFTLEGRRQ
Assay: BLI
Conditions: 150 mM NaCl, active enzyme concentration, kon 168 mM-1 s-1, koff 542e-3 s-1; 3'-dideoxycytidine on primer (strand 2); BLI: 30 mM Tris-Hepes pH 7.8, 100 or 150 mM NaCl, 2 mM TCEP, 0.002% Tween 20, 23 °C; recombinant protein; residues 28-1194; label: 5'-biotin-TEG on template (strand 1)

AATACATAAGCGCTCCAGGCAAT / GCCTGGAGCGC [Octet 23-mer template / 11-mer 3'-ddC primer]
Kd: 3.26 µM

From paper PMC9581978, “The iron-sulfur cluster is essential for DNA binding by human DNA polymerase ε”
